Reference: paper PMC5706827
Results are given in words; binding and its absence hold for the method and conditions named. Binding seen in cells or lysates may run through a third protein. Here binding means that the protein was enriched with, or labelled near, the bait; the list need not be complete.

By UniProt entry, the sequences of proteins in these tests, tags left out.
UniProt O00425: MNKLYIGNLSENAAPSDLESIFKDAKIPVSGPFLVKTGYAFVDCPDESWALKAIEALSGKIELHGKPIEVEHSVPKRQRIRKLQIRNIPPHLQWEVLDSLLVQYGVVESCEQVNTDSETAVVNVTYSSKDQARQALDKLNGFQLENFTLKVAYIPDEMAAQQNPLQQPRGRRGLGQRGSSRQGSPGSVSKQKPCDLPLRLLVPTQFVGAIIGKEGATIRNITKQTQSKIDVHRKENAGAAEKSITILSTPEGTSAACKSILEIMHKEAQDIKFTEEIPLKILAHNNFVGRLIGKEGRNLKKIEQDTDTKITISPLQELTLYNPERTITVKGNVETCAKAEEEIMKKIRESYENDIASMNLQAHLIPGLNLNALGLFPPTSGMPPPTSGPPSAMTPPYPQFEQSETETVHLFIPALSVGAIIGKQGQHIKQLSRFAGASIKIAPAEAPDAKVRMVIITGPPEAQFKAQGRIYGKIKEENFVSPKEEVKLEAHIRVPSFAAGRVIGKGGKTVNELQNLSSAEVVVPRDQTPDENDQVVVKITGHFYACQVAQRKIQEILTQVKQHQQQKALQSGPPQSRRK

Target: Flag-tagged IGF2BP3 (insulin-like growth factor 2 mRNA binding protein 3) (UniProt O00425)
Experiment: affinity purification with mass spectrometry; Flag-tagged IGF2BP3 transfected into HEK293T cells, 48 h; lysates immunopurified with Flag affinity beads, eluted with Flag peptides; SDS-PAGE, silver stain, excised gel segments analysed by mass spectrometry

B1: DHX57 (protein, UniProt Q6P158 1-1386)
chain: MSSSVRRKGKPGKGGGKGSSRGGRGGRSHASKSHGSGGGGGGGGGGGGGNRKASSRIWDDGDDFCIFSESRRPSRPSNSNISKGESRPKWKPKAKVPLQTLHMTSENQEKVKALLRDLQEQDADAGSERGLSGEEEDDEPDCCNDERYWPAGQEPSLVPDLDPLEYAGLASVEPYVPEFTVSPFAVQKLSRYGFNTERCQAVLRMCDGDVGASLEHLLTQCFSETFGERMKISEAVNQISLDECMEQRQEEAFALKSICGEKFIERIQNRVWTIGLELEYLTSRFRKSKPKESTKNVQENSLEICKFYLKGNCKFGSKCRFKHEVPPNQIVGRIERSVDDSHLNAIEDASFLYELEIRFSKDHKYPYQAPLVAFYSTNENLPLACRLHISEFLYDKALTFAETSEPVVYSLITLLEEESEIVKLLTNTHHKYSDPPVNFLPVPSRTRINNPACHKTVIPNNSFVSNQIPEVEKASESEESDEDDGPAPVIVENESYVNLKKKISKRYDWQAKSVHAENGKICKQFRMKQASRQFQSILQERQSLPAWEERETILNLLRKHQVVVISGMTGCGKTTQIPQFILDDSLNGPPEKVANIICTQPRRISAISVAERVAKERAERVGLTVGYQIRLESVKSSATRLLYCTTGVLLRRLEGDTALQGVSHIIVDEVHERTEESDFLLLVLKDIVSQRPGLQVILMSATLNAELFSDYFNSCPVITIPGRTFPVDQFFLEDAIAVTRYVLQDGSPYMRSMKQISKEKLKARRNRTAFEEVEEDLRLSLHLQDQDSVKDAVPDQQLDFKQLLARYKGVSKSVIKTMSIMDFEKVNLELIEALLEWIVDGKHSYPPGAILVFLPGLAEIKMLYEQLQSNSLFNNRRSNRCVIHPLHSSLSSEEQQAVFVKPPAGVTKIIISTNIAETSITIDDVVYVIDSGKMKEKRYDASKGMESLEDTFVSQANALQRKGRAGRVASGVCFHLFTSHHYNHQLLKQQLPEIQRVPLEQLCLRIKILEMFSAHNLQSVFSRLIEPPHTDSLRASKIRLRDLGALTPDERLTPLGYHLASLPVDVRIGKLMLFGSIFRCLDPALTIAASLAFKSPFVSPWDKKEEANQKKLEFAFANSDYLALLQAYKGWQLSTKEGVRASYNYCRQNFLSGRVLQEMASLKRQFTELLSDIGFAREGLRAREIEKRAQGGDGVLDATGEEANSNAENPKLISAMLCAALYPNVVQVKSPEGKFQKTSTGAVRMQPKSAELKFVTKNDGYVHIHPSSVNYQVRHFDSPYLLYHEKIKTSRVFIRDCSMVSVYPLVLFGGGQVNVQLQRGEFVVSLDDGWIRFVAASHQVAELVKELRCELDQLLQDKIKNPSIDLCTCPRGSRIISTIVKLVTTQ
binding: binds

B2: HNRNPL (protein, UniProt P14866 1-589)
chain: MSRRLLPRAEKRRRRLEQRQQPDEQRRRSGAMVKMAAAGGGGGGGRYYGGGSEGGRAPKRLKTDNAGDQHGGGGGGGGGAGAAGGGGGGENYDDPHKTPASPVVHIRGLIDGVVEADLVEALQEFGPISYVVVMPKKRQALVEFEDVLGACNAVNYAADNQIYIAGHPAFVNYSTSQKISRPGDSDDSRSVNSVLLFTILNPIYSITTDVLYTICNPCGPVQRIVIFRKNGVQAMVEFDSVQSAQRAKASLNGADIYSGCCTLKIEYAKPTRLNVFKNDQDTWDYTNPNLSGQGDPGSNPNKRQRQPPLLGDHPAEYGGPHGGYHSHYHDEGYGPPPPHYEGRRMGPPVGGHRRGPSRYGPQYGHPPPPPPPPEYGPHADSPVLMVYGLDQSKMNCDRVFNVFCLYGNVEKVKFMKSKPGAAMVEMADGYAVDRAITHLNNNFMFGQKLNVCVSKQPAIMPGQSYGLEDGSCSYKDFSESRNNRFSTPEQAAKNRIQHPSNVLHFFNAPLEVTEENFFEICDELGVKRPSSVKVFSGKSERSSSGLLEWESKSDALETLGFLNHYQMKNPNGPYPYTLKLCFSTAQHAS
binding: binds
